Patent publication US20160009755A1, “CYRRHETINIC ALKYL ESTERS AND PROTECTED DERIVATIVES THEREOF” (priority 2013, published 2016)

Test system: secreted IL-8 in normal human epidermal keratinocytes (NHEK)
Assay: IL-8 secretion in PMA-stimulated NHEK (anti-inflammatory test)
Type: cell-based
Conditions: 10^−9M
Description: It is believed that the […] compounds of the present invention are useful for reducing inflammation in human skin. In an exemplary test, NHEK were cultured in a medium for 24 hours. The cells were then treated or not (control) with either […] methyl ester or the reference compound (staurosporine) and pre-incubated for 24 hours. Then the culture medium was removed and replaced with another culture medium containing or not (control) the […] methyl ester or the reference compound and containing an inflammatory inducer (PMA) and the cells were incubated for 24 hours. A control without inducer was performed in parallel. After incubation, the culture supernatants were collected in order to measure the quantity of secreted IL-8.

Work on `CN[C@@H]1C[C@H]2O[C@@](C)([C@@H]1OC)n1c3ccccc3c3c4c(c5c6ccccc6n2c5c31)C(=O)NC4` [Staurosporine, staurosporine] yielded an inhibition at 0.001 µM of 83%.
